Laboratory results: paper PMC11591864

Assays:
[1] = molecular target: CadR (MerR family Cd2+ regulator, apo) (Rubrivivax gelatinosus) (UniProt I0HLS8); assay: EMSA; details: 1 mM EDTA, heparin, protein 0-16 µg/µL, 50 mM Tris-HCl pH 7.5, 50 mM potassium acetate (AcK), 20% glycerol, 0.5 µg heparin, 5% gel in 0.5x TBE pH 7.6 at 4 °C, recombinant protein, protein details: His6 (pET-28b NdeI-BamHI, N-terminal implied), label: Cy5 on forward strand
[2] = molecular target: CopR (CueR-like MerR regulator, apo) (Rubrivivax gelatinosus) (UniProt L0EL98); assay: EMSA; details: 1 mM EDTA, heparin, protein 0-16 µg/µL, 50 mM Tris-HCl pH 7.5, 50 mM potassium acetate (AcK), 20% glycerol, 0.5 µg heparin, 1 h room …, 5% gel in 0.5x TBE pH 7.6 at 4 °C, recombinant protein, protein details: His6 (pET-28b NdeI-BamHI, N-terminal implied), label: Cy5 on forward strand

Sequence | binding result ([1]; 1 h room …) | binding result [2] | binding result ([1]; much lower affinity, 1 h room temperature)
CCTTTCGTGTCCGACGCTTGACTCTAAACCCGCTACAGGGTCTGCAATGGCGGC (double strand) [PcadA (54 nt)] | binds | binds | 
TTCCGACAGCCCCGCGCTTGACCTTGCCATCGTGGCAAGGTCGACGATGGCTCCGGTCCACAATG (double strand) [PcopA (65 nt)] |  | binds | binds more weakly

Construct, isoform or probe ends are uncertain for at least one entry. For some of these results: The comparison behind a weaker result is the experiment's own reference, which may not be listed here.
